The entries are a selection whose mix differs from that of the whole data set. Results filed as inconclusive are left out. Calls of active or inactive are those of the source. Calls come from the whole dose curve; as a rule, active = well fitted inhibition curve with a large enough effect; inconclusive = small, poorly fitted or top-dose-only effect; inactive = flat fitted curve, though single readings scatter.
Potency is the fitted concentration of half-maximal effect.

The test is described as follows: qHTS for Inhibitors of human tyrosyl-DNA phosphodiesterase 1 (TDP1): qHTS in cells in presence of CPT. Note: nearly all actives have a fitted effect of over 55% in size. Particulars: chicken DT40 Tdp1-/-;hTDP1 cells + 20 nM CPT, ATP luminescence, 48 h. The source says: Human tyrosyl-DNA phosphodiesterase 1 (TDP1) is a novel repair gene, and we propose to use it as a new target for anticancer drug development. TDP1 is not an essential protein, but under treatment with topoisomerase I poison (camptothecin: CPT), TDP1 works as a critical factor for cell survival. To directly identify novel TDP1 inhibitors active in a cellular environment, we have knocked-out the Tdp1 gene in chicken DT40 cells (Tdp1-/-) and generated a complemented counterpart cells that contains a stable transfection of the human TDP1 gene (Tdp1-/-;hTDP1 cells). For the primary screen, Tdp1-/-;hTDP1 cells will be exposed to small molecules in the presence or absence of CPT, and their growth kinetics will be evaluated after 48 hours by measuring ATP activity. […] The hit compounds will then be evaluated in the presence or absence of CPT using Tdp1-/- cells. […] In tertiary assays, biochemical gel-based assays will be used to assess whether the hit compounds specifically target TDP1. To this end, we have screened this cell line against the MLSMR in two primary screens. In one screen we add CPT and in the other we screen in the absence of CPT; this AID represents the screen where CPT was present. NIH Chemical Genomics Center [NCGC] NIH Molecular Libraries Probe Centers Network [MLPCN] MLPCN Grant: MH095538 Assay Submitter (PI): Yves Pommier, NCI
DT40-hTDP1 cells with 20 nM Camptothecin (add 20 microL of 1 mM CPT stock in 1 L of cell culture medium) were dispensed at 400 cells/5microL/well in tissue culture treated 1536-well white wall/solid bottom assay plates (Greiner Bio-One North America, NC, U.S.A.) using a Multidrop Combi 8 channel dispenser (Thermo Fisher, Waltham, MA, USA). 23 nL compounds and controls were transferred using the pin tool (Kalypsys, San Diego, CA, USA) to the assay plates. The assay plates were then incubated at 37 masculineC for a minimum 48 hr. Three microL of Cell Titer Glo solution was added to the plates and incubated at RT in dark for 30 min. Luminescence was read using ViewLux (Perkin Elmer) with 1 sec exposure slow speed, high gain and 2x binning.
Background: Quantitative high-throughput screening tests each substance at several concentrations.
Regarding `COc1c(O)cc2c(c1OC)-c1ccc(SC)c(=O)cc1C(NC(C)=O)CC2` (stereo not drawn), the Potency was active: 16.4 nM.
To `COc1cc2c(c(OC)c1OC)-c1ccc(SC)c(=O)cc1C(NC(C)=O)CC2` (stereo not drawn) belongs active: 18.4 nM; to `COc1c(O)cc2c(c1OC)-c1ccc(OC)c(=O)cc1C(NC(C)=O)CC2` (stereo not drawn), active: 920 nM.

These data come from PubChem BioAssay AID686979 (National Center for Advancing Translational Sciences (NCATS), 2013).
